About 1,400 (4.5%) of roughly 31,000 sequences were called active.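 The calls were made as follows: active = median seed-adjusted z-score above 1 or below -1; inactive = the rest.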 Some of the results follow.
Assay: Novel Modifiers of Survival Motor Neuron (SMN) Protein: Gene Identification via Genome-wide siRNA Screen;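 also: luminescence tracks full-length SMN protein made from the SMN2 reporter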
Details: HEK293T SMN2-luciferase reporter, siRNA knockdown, 72 h; actives lie on both sides
Method in brief: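 HEK293T cells stably carrying an SMN2 promoter/splicing cassette–luciferase reporter were reverse-transfected with 1 pmol siRNA per well (druggable-genome library, 3 siRNAs per gene) and grown 72 h at 37 °C. Luminescence, normalized to negative-control siRNA and log10-transformed, was scored as MAD.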

| Sequence | median seed-adjusted z-score |
| --- | --- |
| CGCUGUUUAGCGUACAUGATT against PCDHGA5 | inactive: 0.163 |
| GAAUCUUAGCGGCUACAGATT against SKP2 | inactive: -0.126 |
| GGCUCAUUGUUCUGCACUATT against S1PR4 | inactive: 0.0951 |
| CUGUUGUCGUUAUCUUGAATT against ORC3L | inactive: -0.254 |
| CAUCCAUCCUGAGUCUGAATT against BTD | inactive: -0.165 |
| GACCCACGCAGGGAGUUAATT against CDH26 | inactive: 0 |
| GAGCGGCUGUUUGAAGAUUTT against CHRNA3 | inactive: -0.359 |
| GGAGGAAUCUUGGUCCUUATT against SLC11A2 | inactive: -0.157 |
| GAAGAAUAUUCGCAAAAUATT against HOXC4 | inactive: -0.0114 |
| GCAGAACUCUAACCGCUGUTT against MARK4 | inactive: -0.675 |
| GAGGCGAUAUUGAUGUGCATT against GTF3C3 | inactive: 0.21 |
| GGCUAUCUUCCACUGUUUATT against KCNMB3 | inactive: 0.513 |
| GGUCAGCAAUGGAAGUAAUTT against ONECUT1 | inactive: -0.367 |
| GGAAGAGAUUCAAGUAUUATT against SLC7A11 | inactive: -0.182 |
| GCUUCUACCCGGACGAAGATT against MYCN | inactive: 0.00242 |
| GAGAAGUCGAGGCUCUUUATT against WNT6 | inactive: 0.027 |
| GGCUCAUGCUUCAACAACATT against DMC1 | inactive: -0.00876 |
| CCGGCUCUCUGCUUACGUATT against TNFRSF4 | inactive: 0.311 |
| GGUGCCCAUCAAUCUCAUATT against GSTZ1 | inactive: -0.144 |
| GCUGAUAGCUUACGAGGAATT against CDC2L5 | inactive: 0.314 |
| CCUAAUGCCUAUGAACUCUTT against PRMT5 | inactive: -0.303 |
| GGGUCAAGGCUUUUGCAGATT against LDHD | inactive: 0 |

| Sequence | median seed-adjusted z-score |
| --- | --- |
| CGAUAUGCUGAACAACAAATT against DHX29 | inactive: -0.28 |
| CCAAGUAAGUCCAACGAAATT against SPP1 | inactive: -0.293 |
| GUACGUGGACUGAUAUUAATT against CHD9 | inactive: 0.218 |
| GCUCAAUCCGGUACUUUGATT against CORO1A | inactive: 0.569 |
| GCAUUGGUCUAGAGCUUUATT against SCPEP1 | inactive: -0.99 |
| GAAUCCCAAUGGAUUGAUUTT against IGF1R | inactive: -0.358 |
| GGACAACAUUUGACACCAATT against APOBEC2 | inactive: 0.232 |
| GGUUACGCUUGAUGAUAUATT against TCF20 | inactive: 0.392 |
| GAUGAUGACUUACAUAGAATT against TRRAP | active: -1.25 |
| GCACCCACCUAGACACGAATT against GLIS1 | inactive: 0.838 |
| GACUACGUCCGAACCCGUATT against MLXIPL | inactive: 0 |
| GGUGAACAACAGUCAGAAGTT against GRINL1A | inactive: 0 |
| GGCUCGAUGUUAUGAGUCATT against WDR46 | inactive: -0.136 |
| GAAGAUCUCCAACAAAAGATT against KRT40 | inactive: -0.324 |
| GAGUCAACAAUGGACAUUUTT against KLHL1 | inactive: 0.067 |
| CCACAAGCUGCAUAAGAGATT against SPTBN4 | inactive: -0.0625 |
| GCAGUUCGCCGUAGACUUUTT against DNM1 | inactive: 0.217 |
| GAACAAAAGCGUGAUCUUGTT against KLK3 | inactive: 0.0191 |
| CGAAAAACCUGGGAAAGAUTT against ZNF669 | inactive: 0.175 |
| GCUACGAGUUUACUAUCUUTT against TNIK | inactive: 0.154 |
| GGUCUAAACUUGAUCCAAATT against CCAR1 | active: -1.18 |
| GCUCUAUUUUCGCUUAAAATT against LCMT2 | inactive: -0.0205 |

Looked up one by one from the entries so far:

| Sequence | median seed-adjusted z-score |
| --- | --- |
| GCUACGAGUUUACUAUCUUTT against TNIK | inactive: 0.154 |
| GGUGAACAACAGUCAGAAGTT against GRINL1A | inactive: 0 |
| GGCUAUCUUCCACUGUUUATT against KCNMB3 | inactive: 0.513 |
| GCUUCUACCCGGACGAAGATT against MYCN | inactive: 0.00242 |

Later entries:

| Sequence | median seed-adjusted z-score |
| --- | --- |
| CACAGGUAAUCAUACCCUATT against NDUFA9 | inactive: -0.325 |
| UGCUGAAUGGAGAACUGAATT against EARS2 | inactive: 0.0463 |
| CCAUAACCGAUGUGCUGGATT against METTL1 | inactive: 0.0494 |
| GGUGCACCAUUAAUAACCATT against ELF2 | inactive: -0.514 |
| UGAUGGAAGUUGUCACUUATT against BLK | inactive: -0.274 |
| CAGUGAAUAUGGAACCGGATT against CHD3 | inactive: 0.589 |
| CAACCUCUCUCAUCGGGAATT against ETV6 | inactive: 0.0216 |
| CAAUUAACCUGCAGUUUAATT against AP3M2 | inactive: 0.327 |
| GCCUGACAGUGGUAUACAATT against COPZ1 | active: -1.02 |
| CAUCCGCUUUUGUAAGGAUTT against ITPKB | inactive: -0.142 |
| GGAUGAUGUGAACUACAAATT against PTDSS1 | inactive: -0.76 |
| GGACAGUUAAGUUUGGGAATT against MOS | inactive: 0.105 |
| GCUUUCAGCCUGAUGGAUATT against ITPA | inactive: 0.616 |
| GGCCGAAUCCCUUCAGAAATT against NSUN3 | inactive: 0.302 |
| UGAACUGAUCUGUAUCAAATT against CCRL1 | inactive: -0.347 |
| CCCUGGUCCGCUACAAGAATT against PROKR1 | inactive: -0.507 |
| CGAGACCUACUCCUACUAUTT against DEGS2 | inactive: -0.305 |
| GGAAGUCUCUGACACCGAUTT against PGBD1 | inactive: 0.925 |
| CGCAGUCAAUGGUCUAGAATT against NT5C1B | inactive: 0.0594 |
| GGGACAAAAAUACACUUAATT against ZNF277 | inactive: -0.0374 |
| GGGAUGACAUUUUCGUGUATT against USP4 | inactive: -0.0365 |
| CAGUUUCGGUGCAUAGAAATT against NADSYN1 | inactive: 0.217 |

| Sequence | median seed-adjusted z-score |
| --- | --- |
| GAAGUAGAAAGAUAUACGATT against PCDHGB7 | inactive: -0.0065 |
| GGGUGGUGGUUGUAGAUAUTT against PCDHB12 | inactive: -0.0664 |
| CGGCAUCAAUGUGAAAUGUTT against GMEB2 | inactive: -0.669 |
| GACGCAGUAUGAUGAGAUUTT against SPPL2B | inactive: 0.0324 |
| CUGGGACUGUGAUAACGGATT against ASPHD2 | inactive: -0.719 |
| CGGUUGCAACUGGAAUGUUTT against SLCO1B3 | inactive: -0.303 |
| GGCCAUUUGCAAUAGACAUTT against B3GAT1 | inactive: 0.503 |
| GACUUGUCUUCUUCGUAAATT against DNM1L | inactive: -0.153 |
| GGACUCUUCAUGAUCUAUUTT against SLC33A1 | inactive: 0.2 |
| AGCACAGGCUCUUACCUUATT against ZNF177 | inactive: 0.363 |
| CUAUCUCCCUCAUUAGAUATT against GJA9 | inactive: -0.00119 |
| GGACAAUCAUUACCAGAUATT against ZBTB1 | inactive: 0.3 |
| AAUCAAAAGGGAGAACUCATT against HS3ST2 | inactive: 0.133 |
| CAAUAAGGCUCAUGCACAATT against GNAQ | active: -1.23 |
| GCCCUCCAAUAUGCUAGUATT against MAP2K5 | inactive: 0.986 |
| CAACGACUCAAAGUAUAUATT against SETD1A | inactive: 0.0595 |
| AGAUCUACAUCGUGAUGAATT against CDC2L1 | active: -1.14 |
| GAAAUACGAGAAACGAAUUTT against OXCT2 | inactive: -0.449 |
| GAACUUCAGAAGUAUGAGATT against USP29 | inactive: 0.00928 |
| CCAUCGUCCUCAUGUCAAATT against SPIC | inactive: 0.379 |
| CGAUAAACUCAGACCAGAATT against IDE | inactive: -0.081 |
| GCAUUAGAGGUGACGCAAATT against FBXO18 | inactive: -0.417 |

| Sequence | median seed-adjusted z-score |
| --- | --- |
| GAAGGUCCCAAACAACAUUTT against TACR3 | inactive: 0.0904 |
| GCUGGUACCAGAUGCUGUATT against CLN3 | inactive: 0.105 |
| CCCUAGAUAUGGACGAUGATT against UTP3 | active: -1.08 |
| GUUUCGACCUCGAUCCAGATT against ZNF358 | inactive: 0.359 |
| GAGUUGUCGACACCACUUATT against PROS1 | inactive: 0.436 |
| GAUGUUCACGUAAACAUAATT against ZRSR2 | inactive: 0.0222 |
| GGAAUGAAGGUUGUCCUUATT against HSD17B12 | inactive: 0.0719 |
| CCGUAUUCUCAAUCAAGUATT against RAPGEF2 | inactive: -0.0715 |
| CCAGCUCGAGAAUUUGGAATT against MXI1 | inactive: 0.348 |
| GCUCUUACCUUACCAUCGATT against DNMT3B | inactive: 0.0761 |
| GCUCUUAGGUUUUUAUCAATT against PTGER2 | inactive: 0 |
| GCACGAUAUUAUGAUCCAATT against PPAT | active: -1.51 |
| GCUCUAGGCUUCAAGGCAATT against CTSL3 | active: 1.07 |
| GGUACCAACAAAUACGAUATT against INPP5J | inactive: 0.223 |
| GGAUCAUGACCUAUGCUAATT against AKAP3 | inactive: 0.0138 |
| AUCCGUAACUGCUACCAGATT against COX6B2 | inactive: -0.544 |
| GGGCAGGUGUGAUACCUAUTT against RUVBL1 | inactive: -0.834 |
| GGUCCUCAGUAUAAAAUCATT against NOTCH2NL | inactive: 0.586 |
| GGAAGCACAUCUACCUACATT against AMZ1 | inactive: 0.205 |

— PubChem BioAssay AID1347426 (Functional Genomics Laboratory (NCATS/FGL), 2020)
